In paper PMC12354898, “Collagen VI microfibril structure reveals mechanism for molecular assembly and clustering of inherited pathogenic mutations” (Nature Communications, 2025):
Results are given in words; binding and its absence hold for the method and conditions named. A result given as binding can be weak or reduced; the word gives no strength. For part of these data: Binding seen in cells or lysates may run through a third protein.

By UniProt entry, the sequences of proteins in these tests, tags left out. Where a name states a change or a piece, a line headed by the entry shows the natural chain unless it says otherwise.
UniProt P12109: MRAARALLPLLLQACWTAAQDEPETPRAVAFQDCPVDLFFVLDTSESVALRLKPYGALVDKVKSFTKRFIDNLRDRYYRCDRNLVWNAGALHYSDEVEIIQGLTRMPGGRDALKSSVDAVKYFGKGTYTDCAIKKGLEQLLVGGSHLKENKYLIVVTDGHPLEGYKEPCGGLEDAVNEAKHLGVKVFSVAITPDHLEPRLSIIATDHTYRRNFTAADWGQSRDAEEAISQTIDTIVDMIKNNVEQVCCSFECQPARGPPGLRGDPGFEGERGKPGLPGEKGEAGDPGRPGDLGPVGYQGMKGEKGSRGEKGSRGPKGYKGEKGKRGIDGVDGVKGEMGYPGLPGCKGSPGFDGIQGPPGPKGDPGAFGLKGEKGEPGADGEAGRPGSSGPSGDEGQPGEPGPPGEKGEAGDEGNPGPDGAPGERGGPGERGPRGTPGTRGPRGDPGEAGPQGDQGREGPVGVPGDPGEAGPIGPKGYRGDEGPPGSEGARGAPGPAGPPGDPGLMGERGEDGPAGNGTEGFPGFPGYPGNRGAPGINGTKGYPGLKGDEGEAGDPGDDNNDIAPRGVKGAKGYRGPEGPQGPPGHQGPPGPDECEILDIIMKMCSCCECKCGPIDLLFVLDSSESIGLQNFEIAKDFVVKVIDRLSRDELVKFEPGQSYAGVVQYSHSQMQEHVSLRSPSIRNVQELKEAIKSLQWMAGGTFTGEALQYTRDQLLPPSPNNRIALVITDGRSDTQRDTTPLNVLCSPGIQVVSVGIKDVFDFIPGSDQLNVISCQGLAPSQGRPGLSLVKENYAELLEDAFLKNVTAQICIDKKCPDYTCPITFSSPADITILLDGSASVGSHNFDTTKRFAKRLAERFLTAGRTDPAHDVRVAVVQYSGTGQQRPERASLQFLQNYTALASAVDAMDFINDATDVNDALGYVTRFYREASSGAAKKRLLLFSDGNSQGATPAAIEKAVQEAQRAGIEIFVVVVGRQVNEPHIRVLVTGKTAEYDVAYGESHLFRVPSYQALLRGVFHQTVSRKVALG
UniProt P12110: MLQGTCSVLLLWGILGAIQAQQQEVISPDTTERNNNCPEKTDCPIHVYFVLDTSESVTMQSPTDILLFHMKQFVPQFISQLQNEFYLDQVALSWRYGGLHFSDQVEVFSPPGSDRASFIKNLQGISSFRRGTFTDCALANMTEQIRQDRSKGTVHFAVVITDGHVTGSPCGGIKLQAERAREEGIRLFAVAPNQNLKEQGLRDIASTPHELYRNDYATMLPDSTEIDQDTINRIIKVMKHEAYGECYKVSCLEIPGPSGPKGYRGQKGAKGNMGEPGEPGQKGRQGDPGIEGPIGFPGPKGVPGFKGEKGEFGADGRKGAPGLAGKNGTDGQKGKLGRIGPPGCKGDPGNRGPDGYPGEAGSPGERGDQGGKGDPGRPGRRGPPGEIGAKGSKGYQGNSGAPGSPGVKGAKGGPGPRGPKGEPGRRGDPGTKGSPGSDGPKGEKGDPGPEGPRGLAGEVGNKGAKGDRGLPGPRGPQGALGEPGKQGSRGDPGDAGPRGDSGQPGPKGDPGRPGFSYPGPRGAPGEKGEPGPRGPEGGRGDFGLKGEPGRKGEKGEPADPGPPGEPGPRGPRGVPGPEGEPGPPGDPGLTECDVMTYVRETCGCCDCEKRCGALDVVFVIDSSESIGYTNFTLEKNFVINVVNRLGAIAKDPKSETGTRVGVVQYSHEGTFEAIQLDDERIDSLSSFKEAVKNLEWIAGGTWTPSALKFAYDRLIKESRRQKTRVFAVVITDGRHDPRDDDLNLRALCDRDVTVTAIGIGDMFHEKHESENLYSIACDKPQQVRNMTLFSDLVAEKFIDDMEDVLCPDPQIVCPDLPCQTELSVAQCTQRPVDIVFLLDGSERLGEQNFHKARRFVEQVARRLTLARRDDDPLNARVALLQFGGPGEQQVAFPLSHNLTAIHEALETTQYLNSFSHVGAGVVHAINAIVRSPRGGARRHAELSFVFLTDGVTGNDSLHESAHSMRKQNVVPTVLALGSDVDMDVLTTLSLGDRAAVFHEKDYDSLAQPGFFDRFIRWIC
UniProt P12111: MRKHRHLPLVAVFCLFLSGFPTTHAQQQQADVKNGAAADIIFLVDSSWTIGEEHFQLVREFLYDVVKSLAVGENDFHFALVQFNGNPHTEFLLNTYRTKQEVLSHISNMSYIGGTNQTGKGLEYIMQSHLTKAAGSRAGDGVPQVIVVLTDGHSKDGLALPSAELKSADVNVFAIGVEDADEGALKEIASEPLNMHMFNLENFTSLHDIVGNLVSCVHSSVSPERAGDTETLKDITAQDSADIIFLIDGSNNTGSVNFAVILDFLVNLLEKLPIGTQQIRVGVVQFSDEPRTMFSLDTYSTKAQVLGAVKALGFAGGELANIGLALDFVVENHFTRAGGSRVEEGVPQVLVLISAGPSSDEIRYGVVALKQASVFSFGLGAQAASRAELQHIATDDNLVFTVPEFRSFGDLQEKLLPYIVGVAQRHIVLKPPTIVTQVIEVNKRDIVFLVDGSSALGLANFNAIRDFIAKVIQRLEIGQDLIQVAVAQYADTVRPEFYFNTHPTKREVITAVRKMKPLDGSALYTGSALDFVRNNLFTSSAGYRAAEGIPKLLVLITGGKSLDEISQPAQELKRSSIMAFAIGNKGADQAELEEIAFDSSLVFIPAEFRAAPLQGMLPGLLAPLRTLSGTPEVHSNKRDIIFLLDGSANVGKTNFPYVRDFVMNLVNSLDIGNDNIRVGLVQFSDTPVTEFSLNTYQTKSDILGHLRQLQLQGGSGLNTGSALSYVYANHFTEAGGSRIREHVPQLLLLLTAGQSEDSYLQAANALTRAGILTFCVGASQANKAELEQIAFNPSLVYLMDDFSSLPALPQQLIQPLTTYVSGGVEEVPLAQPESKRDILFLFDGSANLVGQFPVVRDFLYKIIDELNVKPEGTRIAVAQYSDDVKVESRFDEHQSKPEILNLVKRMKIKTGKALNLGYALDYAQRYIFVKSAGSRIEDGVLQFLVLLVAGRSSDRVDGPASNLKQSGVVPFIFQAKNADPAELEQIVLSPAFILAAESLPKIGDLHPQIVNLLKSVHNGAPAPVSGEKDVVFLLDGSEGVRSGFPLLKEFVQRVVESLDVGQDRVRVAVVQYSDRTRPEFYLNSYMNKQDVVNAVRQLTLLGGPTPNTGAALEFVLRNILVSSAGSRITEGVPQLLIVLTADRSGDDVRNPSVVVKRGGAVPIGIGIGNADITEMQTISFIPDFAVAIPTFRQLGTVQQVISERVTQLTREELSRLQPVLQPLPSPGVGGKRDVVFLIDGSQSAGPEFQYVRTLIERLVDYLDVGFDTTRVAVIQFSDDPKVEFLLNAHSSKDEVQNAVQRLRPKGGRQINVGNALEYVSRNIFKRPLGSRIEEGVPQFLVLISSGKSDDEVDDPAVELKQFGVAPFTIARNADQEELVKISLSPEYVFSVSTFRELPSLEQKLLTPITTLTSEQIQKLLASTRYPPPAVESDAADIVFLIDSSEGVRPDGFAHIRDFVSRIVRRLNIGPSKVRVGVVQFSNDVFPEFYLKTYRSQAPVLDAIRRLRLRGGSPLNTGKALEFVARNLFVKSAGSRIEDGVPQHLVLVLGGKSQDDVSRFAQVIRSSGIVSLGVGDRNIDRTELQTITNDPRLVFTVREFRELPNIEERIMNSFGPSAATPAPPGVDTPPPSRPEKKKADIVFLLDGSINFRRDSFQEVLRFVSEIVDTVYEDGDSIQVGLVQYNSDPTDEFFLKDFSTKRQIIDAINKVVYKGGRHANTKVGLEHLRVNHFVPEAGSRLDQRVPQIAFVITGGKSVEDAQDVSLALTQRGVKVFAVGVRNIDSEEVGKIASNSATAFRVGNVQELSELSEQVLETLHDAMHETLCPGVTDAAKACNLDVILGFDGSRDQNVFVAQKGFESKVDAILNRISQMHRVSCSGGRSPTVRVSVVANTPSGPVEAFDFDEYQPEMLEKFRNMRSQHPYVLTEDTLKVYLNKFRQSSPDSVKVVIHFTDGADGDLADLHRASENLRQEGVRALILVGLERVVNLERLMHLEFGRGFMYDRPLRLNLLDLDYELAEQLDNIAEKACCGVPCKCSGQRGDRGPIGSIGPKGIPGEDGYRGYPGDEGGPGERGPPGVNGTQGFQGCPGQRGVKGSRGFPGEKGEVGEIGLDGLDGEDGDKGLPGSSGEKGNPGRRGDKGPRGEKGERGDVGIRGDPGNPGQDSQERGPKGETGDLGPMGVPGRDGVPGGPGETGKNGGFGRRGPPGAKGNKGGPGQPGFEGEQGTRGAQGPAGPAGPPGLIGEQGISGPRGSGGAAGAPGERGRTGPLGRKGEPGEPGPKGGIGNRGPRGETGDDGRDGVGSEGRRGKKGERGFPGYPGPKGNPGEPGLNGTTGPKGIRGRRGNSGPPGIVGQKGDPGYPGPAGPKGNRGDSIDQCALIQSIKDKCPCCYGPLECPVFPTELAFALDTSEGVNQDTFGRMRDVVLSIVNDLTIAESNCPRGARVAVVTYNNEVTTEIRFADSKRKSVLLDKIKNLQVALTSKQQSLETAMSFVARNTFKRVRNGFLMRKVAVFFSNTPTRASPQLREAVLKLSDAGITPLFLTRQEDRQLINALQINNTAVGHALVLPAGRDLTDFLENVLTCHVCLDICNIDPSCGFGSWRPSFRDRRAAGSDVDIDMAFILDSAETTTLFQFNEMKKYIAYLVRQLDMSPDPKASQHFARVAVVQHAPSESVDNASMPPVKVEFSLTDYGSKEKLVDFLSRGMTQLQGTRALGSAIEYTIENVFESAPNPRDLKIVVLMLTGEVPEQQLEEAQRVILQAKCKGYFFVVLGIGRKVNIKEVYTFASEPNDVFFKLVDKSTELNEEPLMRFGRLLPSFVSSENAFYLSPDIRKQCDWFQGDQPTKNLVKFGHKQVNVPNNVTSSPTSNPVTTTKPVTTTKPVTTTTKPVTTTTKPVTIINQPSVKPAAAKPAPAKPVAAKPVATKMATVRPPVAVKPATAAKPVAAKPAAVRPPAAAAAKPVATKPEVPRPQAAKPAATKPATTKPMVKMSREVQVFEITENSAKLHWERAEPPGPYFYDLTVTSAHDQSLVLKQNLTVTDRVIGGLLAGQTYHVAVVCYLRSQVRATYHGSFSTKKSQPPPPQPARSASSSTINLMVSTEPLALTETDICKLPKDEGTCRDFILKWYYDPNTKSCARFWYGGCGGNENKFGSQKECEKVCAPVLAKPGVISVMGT

Assays:
[1] = molecular target: mini-collagen VI α1 chain truncated after the C1 vWA domain (α1 chain of α1α2α3^C1) (human) (UniProt P12109); assay: negative-stain TEM; purified α1α2α3^C1 heterotrimer on carbon-coated grids, 2% uranyl acetate; both purified
[2] = molecular target: mini-collagen VI α2 chain truncated after the C1 vWA domain (α2 chain of α1α2α3^C1) (human) (UniProt P12110); assay: as above
[3] = molecular target: mini-collagen VI α1 chain truncated after the C1 vWA domain (α1 chain of α1α2α3^C1) (human) (UniProt P12109); assay: SEC-MALS; purified heterotrimer on Superdex 200 or Superose 6 in HBS (20 mM HEPES, 150 mM NaCl, pH 7.4), 0.75 mL/min; both purified
[4] = molecular target: mini-collagen VI α2 chain truncated after the C1 vWA domain (α2 chain of α1α2α3^C1) (human) (UniProt P12110); assay: as above
[5] = molecular target: mini-collagen VI α1 chain truncated after the C1 vWA domain (α1 chain of α1α2α3^C1) (human) (UniProt P12109); assay: pull-down; three chains co-expressed in Expi293F; sequential affinity steps from conditioned media (Strep-Tactin XT for Twin-Strep α2, Ni-Sepharose for His α1, anti-FLAG M2 for α3; Fig. 5f: Twin-strep then His-tag); eluates on reduced and non-reduced SDS-PAGE
[6] = molecular target: mini-collagen VI α2 chain truncated after the C1 vWA domain (α2 chain of α1α2α3^C1) (human) (UniProt P12110); assay: as above

Row | binding [1] | binding [2] | binding [3] | binding [4] | binding [5] | binding [6] | Substance
1 | binds | binds | binds | binds | binds | binds | mini-collagen VI α3 chain truncated after the C1 vWA domain (α3 chain of α1α2α3^C1) (from UniProt P12111) (domain or fragment)
2 |  | binds |  | binds |  | binds | mini-collagen VI α1 chain truncated after the C1 vWA domain (α1 chain of α1α2α3^C1) (from UniProt P12109) (domain or fragment)
